Laboratory results taken from the supplement of paper PMC10849652.
This is one part of the list.

Protein sequences, listed by entry. Tags and fused reporters are not part of them. Lines headed by an entry give the natural chain unless they say otherwise; changes in a name come on top.
UniProt P09669, whole entry, looked up: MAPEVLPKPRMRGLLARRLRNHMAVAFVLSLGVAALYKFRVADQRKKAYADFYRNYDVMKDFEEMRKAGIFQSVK
UniProt O75534: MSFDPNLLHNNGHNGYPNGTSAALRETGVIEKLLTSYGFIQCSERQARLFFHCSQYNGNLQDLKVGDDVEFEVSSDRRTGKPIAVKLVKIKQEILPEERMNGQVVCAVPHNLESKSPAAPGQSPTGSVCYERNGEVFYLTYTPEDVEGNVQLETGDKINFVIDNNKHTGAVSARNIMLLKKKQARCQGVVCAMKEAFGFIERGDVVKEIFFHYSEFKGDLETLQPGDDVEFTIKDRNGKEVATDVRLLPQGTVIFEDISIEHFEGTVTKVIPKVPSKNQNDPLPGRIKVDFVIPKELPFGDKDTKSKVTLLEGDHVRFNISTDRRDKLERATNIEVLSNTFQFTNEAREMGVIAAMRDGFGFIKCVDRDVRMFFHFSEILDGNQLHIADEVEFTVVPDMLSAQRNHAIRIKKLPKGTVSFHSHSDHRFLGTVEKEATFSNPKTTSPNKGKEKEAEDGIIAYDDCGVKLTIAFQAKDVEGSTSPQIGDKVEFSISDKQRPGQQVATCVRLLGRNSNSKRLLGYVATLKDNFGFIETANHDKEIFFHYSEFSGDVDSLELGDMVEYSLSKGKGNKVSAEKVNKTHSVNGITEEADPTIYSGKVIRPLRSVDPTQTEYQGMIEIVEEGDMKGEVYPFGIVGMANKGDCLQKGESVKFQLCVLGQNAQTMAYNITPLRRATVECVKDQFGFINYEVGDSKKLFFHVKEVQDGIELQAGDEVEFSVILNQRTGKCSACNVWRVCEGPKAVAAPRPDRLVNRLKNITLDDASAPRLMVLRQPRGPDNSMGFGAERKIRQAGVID
UniProt Q99829: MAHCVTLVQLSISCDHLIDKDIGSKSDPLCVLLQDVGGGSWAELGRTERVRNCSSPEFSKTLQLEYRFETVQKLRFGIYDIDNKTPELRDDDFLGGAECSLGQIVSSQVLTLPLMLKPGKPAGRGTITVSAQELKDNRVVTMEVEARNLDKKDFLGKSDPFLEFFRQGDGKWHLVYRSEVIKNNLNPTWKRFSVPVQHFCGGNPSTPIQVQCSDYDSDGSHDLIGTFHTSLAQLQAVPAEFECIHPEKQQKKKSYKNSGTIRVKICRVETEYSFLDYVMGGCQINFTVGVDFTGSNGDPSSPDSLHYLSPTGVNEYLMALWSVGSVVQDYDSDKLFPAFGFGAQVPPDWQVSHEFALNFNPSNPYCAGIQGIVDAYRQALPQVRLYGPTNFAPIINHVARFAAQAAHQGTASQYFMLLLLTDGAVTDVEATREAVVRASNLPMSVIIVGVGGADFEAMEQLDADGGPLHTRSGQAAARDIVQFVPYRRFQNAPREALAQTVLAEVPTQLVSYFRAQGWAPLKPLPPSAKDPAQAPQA
UniProt Q9NZJ6: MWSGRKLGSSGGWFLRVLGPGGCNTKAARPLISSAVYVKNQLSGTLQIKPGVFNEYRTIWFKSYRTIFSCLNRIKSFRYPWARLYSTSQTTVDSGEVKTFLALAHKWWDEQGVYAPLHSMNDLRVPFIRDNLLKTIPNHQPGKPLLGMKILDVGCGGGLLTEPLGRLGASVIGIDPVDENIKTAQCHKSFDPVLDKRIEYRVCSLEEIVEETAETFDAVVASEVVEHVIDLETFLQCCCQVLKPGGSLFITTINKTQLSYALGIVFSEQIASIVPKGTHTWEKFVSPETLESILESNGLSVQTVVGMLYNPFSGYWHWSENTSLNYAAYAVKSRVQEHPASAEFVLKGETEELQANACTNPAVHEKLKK
UniProt P61201: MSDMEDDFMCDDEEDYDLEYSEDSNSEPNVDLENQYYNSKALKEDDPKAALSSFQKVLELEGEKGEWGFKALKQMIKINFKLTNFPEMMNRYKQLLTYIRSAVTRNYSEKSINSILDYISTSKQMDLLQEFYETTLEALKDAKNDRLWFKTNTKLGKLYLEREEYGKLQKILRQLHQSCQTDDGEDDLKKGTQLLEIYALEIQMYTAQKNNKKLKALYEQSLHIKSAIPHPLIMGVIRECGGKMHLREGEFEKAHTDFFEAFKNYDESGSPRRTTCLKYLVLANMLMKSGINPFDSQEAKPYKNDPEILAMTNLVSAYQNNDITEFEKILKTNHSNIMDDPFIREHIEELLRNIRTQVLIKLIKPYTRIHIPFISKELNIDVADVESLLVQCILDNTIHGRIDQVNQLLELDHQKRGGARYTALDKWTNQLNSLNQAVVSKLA
UniProt O75629: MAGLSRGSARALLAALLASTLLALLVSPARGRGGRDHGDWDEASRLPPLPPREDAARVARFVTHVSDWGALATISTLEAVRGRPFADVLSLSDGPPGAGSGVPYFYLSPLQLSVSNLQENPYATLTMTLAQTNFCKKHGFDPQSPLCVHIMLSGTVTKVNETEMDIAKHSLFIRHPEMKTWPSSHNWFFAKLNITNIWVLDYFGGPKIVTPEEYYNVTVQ
UniProt Q9H9Q2: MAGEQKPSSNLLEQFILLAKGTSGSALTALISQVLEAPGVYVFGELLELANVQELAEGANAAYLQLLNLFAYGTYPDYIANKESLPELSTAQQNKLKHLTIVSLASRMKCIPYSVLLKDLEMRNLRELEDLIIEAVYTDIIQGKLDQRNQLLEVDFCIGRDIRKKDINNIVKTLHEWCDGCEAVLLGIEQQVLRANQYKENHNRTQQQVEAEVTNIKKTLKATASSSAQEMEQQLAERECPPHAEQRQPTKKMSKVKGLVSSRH
UniProt Q17RY0: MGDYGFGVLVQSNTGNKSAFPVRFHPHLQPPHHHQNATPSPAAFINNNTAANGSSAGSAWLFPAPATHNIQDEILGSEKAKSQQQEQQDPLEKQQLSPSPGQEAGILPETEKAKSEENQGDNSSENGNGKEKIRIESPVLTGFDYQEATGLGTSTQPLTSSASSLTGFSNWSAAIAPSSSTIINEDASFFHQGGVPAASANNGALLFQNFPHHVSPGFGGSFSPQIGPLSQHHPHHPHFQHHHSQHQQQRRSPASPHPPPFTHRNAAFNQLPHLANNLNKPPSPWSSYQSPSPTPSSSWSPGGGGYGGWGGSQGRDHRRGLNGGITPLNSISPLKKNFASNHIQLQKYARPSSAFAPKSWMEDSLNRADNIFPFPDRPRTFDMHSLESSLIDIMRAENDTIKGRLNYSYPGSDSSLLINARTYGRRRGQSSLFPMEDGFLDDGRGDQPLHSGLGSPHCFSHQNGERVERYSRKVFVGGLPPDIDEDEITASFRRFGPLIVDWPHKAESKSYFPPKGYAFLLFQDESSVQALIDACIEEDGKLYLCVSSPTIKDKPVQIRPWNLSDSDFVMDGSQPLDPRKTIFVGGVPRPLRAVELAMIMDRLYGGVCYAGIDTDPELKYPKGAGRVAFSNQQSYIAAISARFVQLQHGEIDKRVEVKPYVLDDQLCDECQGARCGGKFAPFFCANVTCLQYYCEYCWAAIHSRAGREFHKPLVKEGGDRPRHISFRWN
UniProt Q9H3G5: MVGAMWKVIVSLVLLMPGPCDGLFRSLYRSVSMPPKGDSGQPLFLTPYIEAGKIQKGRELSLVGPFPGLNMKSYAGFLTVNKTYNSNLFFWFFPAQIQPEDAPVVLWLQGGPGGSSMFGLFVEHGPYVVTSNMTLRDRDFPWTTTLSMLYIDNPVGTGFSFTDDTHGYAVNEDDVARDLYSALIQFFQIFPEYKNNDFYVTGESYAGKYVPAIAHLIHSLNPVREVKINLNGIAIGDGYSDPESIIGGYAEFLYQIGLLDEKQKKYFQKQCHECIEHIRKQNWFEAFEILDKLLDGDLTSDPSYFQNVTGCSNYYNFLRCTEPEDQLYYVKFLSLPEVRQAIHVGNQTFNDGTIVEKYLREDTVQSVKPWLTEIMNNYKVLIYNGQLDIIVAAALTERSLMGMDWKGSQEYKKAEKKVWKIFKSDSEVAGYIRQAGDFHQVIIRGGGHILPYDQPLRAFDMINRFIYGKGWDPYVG
UniProt P31327: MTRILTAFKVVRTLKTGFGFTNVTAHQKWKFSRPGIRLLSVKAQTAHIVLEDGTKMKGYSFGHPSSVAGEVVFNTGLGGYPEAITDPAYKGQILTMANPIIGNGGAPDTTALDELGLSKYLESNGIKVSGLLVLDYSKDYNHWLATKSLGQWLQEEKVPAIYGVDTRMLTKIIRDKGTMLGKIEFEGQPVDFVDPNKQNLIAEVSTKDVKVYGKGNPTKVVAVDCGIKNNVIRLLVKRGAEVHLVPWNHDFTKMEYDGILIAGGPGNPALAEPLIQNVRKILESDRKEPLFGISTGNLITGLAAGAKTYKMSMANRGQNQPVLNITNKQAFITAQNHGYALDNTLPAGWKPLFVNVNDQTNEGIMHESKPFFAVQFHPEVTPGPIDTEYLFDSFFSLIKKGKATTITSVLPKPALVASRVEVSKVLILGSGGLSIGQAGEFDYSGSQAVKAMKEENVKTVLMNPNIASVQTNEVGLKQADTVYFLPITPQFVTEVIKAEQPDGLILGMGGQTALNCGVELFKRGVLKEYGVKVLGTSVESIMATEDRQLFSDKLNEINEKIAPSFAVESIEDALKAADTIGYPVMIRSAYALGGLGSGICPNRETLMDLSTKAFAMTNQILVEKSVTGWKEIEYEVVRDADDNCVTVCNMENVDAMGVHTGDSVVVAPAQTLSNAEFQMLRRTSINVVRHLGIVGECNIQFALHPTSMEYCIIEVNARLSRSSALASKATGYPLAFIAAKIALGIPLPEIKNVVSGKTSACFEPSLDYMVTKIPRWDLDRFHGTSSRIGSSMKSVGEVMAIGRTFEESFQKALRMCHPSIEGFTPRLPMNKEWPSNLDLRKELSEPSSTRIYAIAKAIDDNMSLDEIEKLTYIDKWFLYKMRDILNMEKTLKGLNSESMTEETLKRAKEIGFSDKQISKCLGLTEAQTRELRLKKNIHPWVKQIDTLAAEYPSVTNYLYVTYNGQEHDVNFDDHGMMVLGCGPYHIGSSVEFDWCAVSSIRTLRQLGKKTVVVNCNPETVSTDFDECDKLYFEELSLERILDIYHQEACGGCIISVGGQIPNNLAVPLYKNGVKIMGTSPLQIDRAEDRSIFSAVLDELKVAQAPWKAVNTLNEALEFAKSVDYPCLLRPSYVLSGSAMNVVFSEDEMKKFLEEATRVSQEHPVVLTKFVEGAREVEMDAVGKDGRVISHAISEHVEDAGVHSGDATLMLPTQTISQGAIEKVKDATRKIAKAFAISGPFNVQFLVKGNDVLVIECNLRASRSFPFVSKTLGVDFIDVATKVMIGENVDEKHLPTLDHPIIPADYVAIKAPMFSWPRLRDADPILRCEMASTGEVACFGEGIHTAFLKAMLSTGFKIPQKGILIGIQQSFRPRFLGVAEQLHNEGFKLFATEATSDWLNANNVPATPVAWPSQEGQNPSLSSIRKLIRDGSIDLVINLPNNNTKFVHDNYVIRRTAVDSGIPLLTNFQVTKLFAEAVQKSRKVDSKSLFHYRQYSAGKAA
UniProt Q9BRF8, whole entry, looked up: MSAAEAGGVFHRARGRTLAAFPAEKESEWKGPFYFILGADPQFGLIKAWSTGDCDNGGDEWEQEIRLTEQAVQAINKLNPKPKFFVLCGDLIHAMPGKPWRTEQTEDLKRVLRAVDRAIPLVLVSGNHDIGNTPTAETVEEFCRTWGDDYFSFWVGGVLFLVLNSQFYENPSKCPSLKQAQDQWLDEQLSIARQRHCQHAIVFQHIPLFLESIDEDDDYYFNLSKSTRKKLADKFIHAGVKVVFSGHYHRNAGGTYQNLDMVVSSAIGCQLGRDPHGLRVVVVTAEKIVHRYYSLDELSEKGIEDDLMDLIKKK
UniProt Q9GZQ3, whole entry, looked up: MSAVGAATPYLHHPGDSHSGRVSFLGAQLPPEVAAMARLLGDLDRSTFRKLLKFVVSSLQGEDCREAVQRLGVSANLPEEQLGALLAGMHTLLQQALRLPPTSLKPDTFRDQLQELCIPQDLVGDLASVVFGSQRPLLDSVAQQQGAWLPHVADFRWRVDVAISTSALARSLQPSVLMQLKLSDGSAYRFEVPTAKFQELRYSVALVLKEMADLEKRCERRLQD
UniProt Q7Z5Q1: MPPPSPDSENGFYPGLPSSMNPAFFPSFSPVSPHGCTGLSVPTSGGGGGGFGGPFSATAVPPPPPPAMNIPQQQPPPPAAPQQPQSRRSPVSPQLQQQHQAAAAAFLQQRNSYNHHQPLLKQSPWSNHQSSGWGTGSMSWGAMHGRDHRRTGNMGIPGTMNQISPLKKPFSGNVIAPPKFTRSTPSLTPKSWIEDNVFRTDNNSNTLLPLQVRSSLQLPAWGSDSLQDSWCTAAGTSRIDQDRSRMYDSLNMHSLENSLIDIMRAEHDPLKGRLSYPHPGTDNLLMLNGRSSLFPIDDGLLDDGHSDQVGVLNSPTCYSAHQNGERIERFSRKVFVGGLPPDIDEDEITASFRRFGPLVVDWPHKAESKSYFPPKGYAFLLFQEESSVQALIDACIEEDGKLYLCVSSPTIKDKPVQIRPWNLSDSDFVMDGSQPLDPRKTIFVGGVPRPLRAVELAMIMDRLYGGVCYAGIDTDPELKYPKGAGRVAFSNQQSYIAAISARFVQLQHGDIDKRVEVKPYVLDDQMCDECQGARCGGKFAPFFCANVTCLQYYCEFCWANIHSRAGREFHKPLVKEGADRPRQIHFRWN

Experiments:
Assay in all cases: log2 fold change, soluble protein after heating vs DMSO (PISA); higher = thermal stabilisation; K562 cells, 10 uM, 30 min; active = over 0.2 and 3.5 SD of the protein, either way, in both replicates (recomputed)
[1] = compound: NC(=O)Nc1cc(-c2cccc(F)c2)sc1C(=O)N[C@H]1CCCNC1
Method in brief: (§1)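 K562 cells at 2×10^6 cells/mL were treated with 10 μM compound for 30 min. Aliquots were heated for 3 min across 48°C-58°C, pooled, and extracted in PBS with 0.5% NP-40 at 4°C; soluble protein was the supernatant after 21,000xg for 90 min. Soluble protein was quantified by TMTpro 16plex LC-MS/MS with channel sums equalised, and reported as log2 fold change in thermal stability against DMSO controls, with values from duplicates.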

[2] = compound: NC(=O)c1cnc(N[C@@H]2CCCC[C@@H]2N)nc1Nc1cccc(-n2nccn2)c1
Method in brief: as §1

[3] = compound: NC1(c2ccc(-c3nc4ccn5c(=O)[nH]nc5c4cc3-c3ccccc3)cc2)CCC1
Method in brief: as §1

[4] = compound: NCC(=O)Nc1ccc(-n2nc(C(F)(F)F)cc2-c2ccc3c(ccc4ccccc43)c2)cc1
Method in brief: as §1

entinostat = compound: Nc1ccccc1NC(=O)c1ccc(CNC(=O)OCc2cccnc2)cc1 [entinostat]
Method in brief: as §1

vorinostat = compound: O=C(CCCCCCC(=O)Nc1ccccc1)NO [vorinostat]
Method in brief: as §1

citarinostat = compound: O=C(CCCCCCNC(=O)c1cnc(N(c2ccccc2)c2ccccc2Cl)nc1)NO [citarinostat]
Method in brief: as §1

silmitasertib = compound: O=C(O)c1ccc2c(c1)nc(Nc1cccc(Cl)c1)c1ccncc12 [silmitasertib]
Method in brief: as §1

[5] = compound: O=C1NC(=O)C(c2cnc3ccccn23)=C1c1cn2c3c(cc(F)cc13)CN(C(=O)N1CCCCC1)CC2
Method in brief: as §1

[6] = compound: c1cc(OCCN2CCCCC2)cc(-c2n[nH]c3ccc(-c4nnc[nH]4)cc23)c1
Method in brief: as §1

Measured: log2 fold change

CRELD2 isoform 5 (UniProt Q6UXH1)
inactive: [1] 0.003 | [2] 0 | [3] 0.013 | [4] -0.021 | entinostat -0.01 | vorinostat -0.04 | citarinostat -0.016 | silmitasertib 0.039 | [5] 0.103 | [6] -0.018

CORO1B (UniProt Q9BR76)
inactive: [1] -0.052 | [2] 0.006 | [3] -0.063 | [4] -0.037 | entinostat 0.016 | vorinostat 0.029 | citarinostat 0.044 | silmitasertib -0.002 | [5] -0.049 | [6] 0.017

CPNE3 (UniProt O75131)
inactive: [1] -0.052 | [2] 0.081 | [3] -0.004 | [4] 0.18 | entinostat 0.023 | vorinostat -0.016 | citarinostat 0.029 | silmitasertib 0.056 | [5] -0.07 | [6] 0.031

COX6C (UniProt P09669)
inactive: [1] -0.013 | [2] -0.043 | [3] 0.264 | [4] -0.035 | entinostat -0.008 | vorinostat -0.016 | citarinostat -0.132 | silmitasertib -0.063 | [5] -0.015 | [6] 0.108

CSDE1 isoform 4 (UniProt O75534)
inactive: [1] -0.002 | [2] -0.063 | [3] 0.051 | [4] -0.021 | entinostat 0.101 | vorinostat 0.104 | citarinostat 0.048 | silmitasertib 0.14 | [5] 0.236 | [6] -0.146

COPS4 (UniProt Q9BT78)
inactive: [1] 0.015 | [2] 0.009 | [3] -0.032 | [4] 0.036 | entinostat 0.01 | vorinostat 0.027 | citarinostat 0.031 | silmitasertib -0.035 | [5] -0.01 | [6] 0.027

CREM isoform 1 (UniProt Q03060)
inactive: [1] -0.165 | [2] -0.099 | [3] 0.075 | [4] 0.054 | entinostat 0.025 | vorinostat -0.205 | citarinostat 0.027 | silmitasertib -0.036 | [5] 0.101 | [6] -0.254

COPG2 (UniProt Q9UBF2)
inactive: [1] 0.091 | [2] -0.004 | [3] -0.065 | [4] -0.047 | entinostat 0.054 | vorinostat 0.03 | citarinostat 0.049 | silmitasertib -0.001 | [5] -0.105 | [6] -0.001

CPNE1 (UniProt Q99829)
inactive: [1] -0.007 | [2] 0.008 | [3] -0.16 | [4] -0.021 | entinostat -0.023 | vorinostat -0.029 | citarinostat 0.025 | silmitasertib 0.034 | [5] -0.053 | [6] 0.016

COMTD1 (UniProt Q86VU5)
inactive: [1] 0.002 | [2] 0.029 | [3] -0.093 | [4] 0.026 | entinostat -0.047 | vorinostat -0.059 | citarinostat -0.078 | silmitasertib -0.036 | [5] -0.109 | [6] -0.084

CPSF2 (UniProt Q9P2I0)
inactive: [1] 0.025 | [2] 0.04 | [3] -0.051 | [4] -0.083 | entinostat 0.013 | vorinostat 0.049 | citarinostat -0.003 | silmitasertib 0.269 | [5] 0.063 | [6] -0.043

COX5A (UniProt P20674)
inactive: [1] 0.019 | [2] 0.103 | [3] 0.117 | [4] 0.024 | entinostat 0.024 | vorinostat -0.078 | citarinostat -0.041 | silmitasertib -0.055 | [5] -0.228 | [6] -0.046

CRYZL1 (UniProt O95825)
inactive: [1] 0.056 | [2] 0.016 | [3] 0.002 | [4] 0.045 | entinostat -0.015 | vorinostat -0.028 | citarinostat 0.02 | silmitasertib 0.016 | [5] -0.03 | [6] -0.002

COQ3 (UniProt Q9NZJ6)
inactive: [1] -0.044 | [2] -0.071 | [3] -0.063 | [4] -0.046 | entinostat -0.06 | vorinostat 0.064 | citarinostat 0.06 | silmitasertib 0.031 | [5] -0.031 | [6] -0.024

COPS2 (UniProt P61201)
inactive: [1] 0.044 | [2] 0.023 | [3] -0.052 | [4] -0.001 | entinostat -0.011 | vorinostat 0.009 | citarinostat 0.069 | silmitasertib -0.035 | [5] -0.011 | [6] -0.02

CREG1 (UniProt O75629)
inactive: [1] -0.01 | [2] 0.056 | [3] 0.137 | [4] -0.04 | entinostat -0.13 | vorinostat -0.061 | citarinostat -0.066 | silmitasertib -0.044 | [5] -0.063 | [6] 0.061

COPS7B (UniProt Q9H9Q2)
inactive: [1] 0 | [2] 0.133 | [3] 0.006 | [4] 0.155 | entinostat -0.027 | vorinostat 0.061 | citarinostat 0.01 | silmitasertib 0.015 | [5] 0.042 | [6] -0.023

CPEB4 (UniProt Q17RY0)
inactive: [1] -0.032 | [2] -0.08 | [3] 0.064 | [4] -0.132 | entinostat 0.024 | vorinostat -0.013 | citarinostat 0.054 | silmitasertib 0 | [6] -0.062

CPVL (UniProt Q9H3G5)
inactive: [1] -0.122 | [2] 0.03 | [3] -0.139 | [4] -0.085 | entinostat -0.06 | vorinostat -0.039 | citarinostat -0.055 | silmitasertib -0.004 | [5] -0.148 | [6] 0.041

CPS1 isoform 3 (UniProt P31327)
inactive: [1] 0.061 | [2] -0.32 | [3] 0.021 | [4] 0.009 | entinostat 0.093 | vorinostat 0.241 | citarinostat -0.011 | silmitasertib 0.024 | [5] 0.059 | [6] 0.314

2 successive records already listed:
CPEB4 (UniProt Q17RY0)
inactive: [1] -0.032 | [2] -0.08 | [3] 0.064 | [4] -0.132 | entinostat 0.024 | vorinostat -0.013 | citarinostat 0.054 | silmitasertib 0 | [6] -0.062

CPVL (UniProt Q9H3G5)
inactive: [1] -0.122 | [2] 0.03 | [3] -0.139 | [4] -0.085 | entinostat -0.06 | vorinostat -0.039 | citarinostat -0.055 | silmitasertib -0.004 | [5] -0.148 | [6] 0.041

Continuation:

CPPED1 (UniProt Q9BRF8)
inactive: [1] 0.003 | [2] 0.003 | [3] -0.032 | [4] -0.015 | entinostat -0.006 | vorinostat 0.006 | citarinostat 0.027 | silmitasertib 0.005 | [5] 0.008 | [6] -0.011

CRTC2 (UniProt Q53ET0)
inactive: [2] -0.001 | [3] -0.13 | [4] 0.038 | entinostat 0.004 | citarinostat -0.099 | silmitasertib 0.092 | [5] -0.125 | [6] -0.143
active: [1] -0.814

CSE1L (UniProt P55060)
inactive: [1] -0.037 | [2] -0.067 | [3] -0.162 | [4] -0.071 | entinostat 0.05 | vorinostat 0.015 | citarinostat 0.058 | silmitasertib 0.035 | [5] -0.059 | [6] -0.018

COMMD5 (UniProt Q9GZQ3)
inactive: [1] -0.007 | [2] -0.021 | [3] -0.124 | [4] -0.042 | entinostat -0.001 | vorinostat -0.043 | citarinostat 0.067 | silmitasertib -0.005 | [5] -0.02 | [6] 0.035

CPEB2 isoform 9 (UniProt Q7Z5Q1)
inactive: [1] 0.011 | [2] -0.059 | [4] 0.367 | entinostat -0.227 | [5] -0.233

CPQ (UniProt Q9Y646)
inactive: [1] 0.083 | [2] -0.01 | [3] -0.011 | [4] 0.072 | entinostat 0.012 | vorinostat -0.043 | citarinostat 0.038 | silmitasertib -0.004 | [5] 0.03 | [6] 0.009

COL6A1 (UniProt P12109)
inactive: [1] -0.136 | [2] -0.065 | [3] 0.159 | [4] -0.028 | entinostat -0.119 | vorinostat 0.028 | citarinostat -0.069 | silmitasertib 0.152 | [6] 0.299
